{"source": "PubChem BioAssay AID1508600", "about": "(Functional Genomics Laboratory (NCATS/FGL), 2020)", "note": "About 3,700 (7%) of roughly 53,000 sequences were called active.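 Rule for the calls: active = gene knockdowns whose robust z-score for IL-1 alpha signal is at least 2 or at most -2, so actives lie on both sides; inactive = the rest.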 Some of the results follow."}
{"assay": "Components of the Cytosolic LPS Sensing Pathway: Gene Identification via Genome-wide siRNA Screen;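 note: robust z of the log signal after scaling to non-targeting control siRNA wells of the plate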", "details": "RAW264.7 macrophages, IL-1a HTRF, actives lie on both sides, screened at 100 nM (by protocol), cells primed 5 h with Pam3CSK4 first", "outline": "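RAW264.7 mouse macrophages reverse-transfected with single siRNAs (100 nM final) for 48h, primed with Pam3CSK4 for 5 hours, then transfected with LipidA for 24 hour. Supernatant IL-1a read by HTRF; values normalized to negative-control median, log-transformed robust z-scores.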"}
{"sequence": "GGCAGAGAGCAGAGACAUCTT against Lpcat1", "z-score": "inactive: 0.405"}
{"sequence": "GGACAUUCUCUACCGAAUATT against Acsm1", "z-score": "active: 2.04"}
{"sequence": "GGCUGUCAUUGAGUUUGAGTT against Klrc2", "z-score": "inactive: 1.18"}
{"sequence": "CCUCUAUCGAGGUUCGUUCTT against Tmem132a", "z-score": "inactive: -0.972"}
{"sequence": "GGGAUAGGAAACAUACCAATT against Ptk6", "z-score": "inactive: -0.686"}
{"sequence": "CCUACGCUAUGCCAUAGACTT against Apobec3", "z-score": "inactive: 0.456"}
{"sequence": "GCAUUGUGCUGAUGUGCGGTT against Ap1ar", "z-score": "active: 3.01"}
{"sequence": "GGGUGUACAUUGAAAUUAATT against Epha4", "z-score": "inactive: -0.717"}
{"sequence": "CCCUGGCAAAUAUCACUGCTT against Dapk2", "z-score": "inactive: 0.617"}
{"sequence": "CCACUAUCAUUAUUUAUGCTT against Xkrx", "z-score": "inactive: 0.617"}
{"sequence": "CCUUCUAAACACUUGACUUTT against Ugt2b5", "z-score": "inactive: 0.106"}
{"sequence": "GGAAUUUGUCAAGUUGUAGTT against Pou4f2", "z-score": "inactive: -0.442"}
{"sequence": "GGAAUAAGAAGCCACUCUATT against Fam174a", "z-score": "inactive: -0.71"}
{"sequence": "GGAGAAAGGCAUCUUCAAATT against Spdef", "z-score": "inactive: 0.0302"}
{"sequence": "GGACUGUGUGCAACUGAACTT against Camkk1", "z-score": "inactive: -1.42"}
{"sequence": "GGGAUAUGAAUGGAUAUUCTT against Twf1", "z-score": "inactive: 0.266"}
{"sequence": "CGUAUAACUAACCUGUUGATT against Vmn1r52", "z-score": "inactive: 1.23"}
{"sequence": "CCCUCUUGCAGUCAGCUGATT against Rpl41", "z-score": "inactive: 0.0843"}
{"sequence": "CGGAAGACCCUGAGACUAUTT against Doc2g", "z-score": "inactive: 0.793"}
{"sequence": "CCACAAUAAUGAGCAGCAGTT against Olfr792", "z-score": "inactive: -0.754"}
{"sequence": "GCACCAGGCCACAAUUAAUTT against Luzp2", "z-score": "inactive: 0.279"}
{"sequence": "CGGCCUGGUACCAUCUUAUTT against Antxr2", "z-score": "inactive: 0.568"}
{"sequence": "GGAGCUGUAUGAGAUAGAGTT against Zfp566", "z-score": "active: 4.15"}
{"sequence": "GGGAUACAGGACUAAACGATT against Fgf16", "z-score": "inactive: 0.423"}
{"sequence": "GGAGUCCUCUCUUCACUUCTT against Serpinb9", "z-score": "inactive: -0.768"}
{"sequence": "GCAAUUCUUGGAGUUCAAATT against Ndc1", "z-score": "inactive: -0.149"}
{"sequence": "GGAUAUUGUGGUUUUUAGCTT against Pdc", "z-score": "inactive: -0.145"}
{"sequence": "GGUUGUAAAAGACCAUUAATT against St3gal4", "z-score": "inactive: 0.102"}
{"sequence": "GCUAUUGAGAAACCACUUATT against Rasef", "z-score": "inactive: -0.276"}
{"sequence": "GCGGACGGAGGAACUAAUUTT against Arhgef19", "z-score": "inactive: 0.307"}
{"sequence": "GGAUGUGACAUGAAUCCUGTT against Ankle1", "z-score": "inactive: -0.49"}
{"sequence": "GGCAAAGGAUCUCAACGGATT against Msh6", "z-score": "inactive: -0.702"}
{"sequence": "CGUAUGGAGAUACCACACATT against Hpd", "z-score": "inactive: 0.516"}
{"sequence": "GCCUAGACCUAAGCAUAGCTT against Prpmp5", "z-score": "inactive: 0.228"}
{"sequence": "CCGAAAAGUGAUAUGCUUUTT against Akap4", "z-score": "inactive: -0.645"}
{"sequence": "GGAUCUUCAGGUUCUGAUGTT against Mmadhc", "z-score": "inactive: 1.18"}
{"sequence": "GGAGAUCCUCAUUUGUGUGTT against Ftmt", "z-score": "inactive: -1.99"}
{"sequence": "CCAAAAACCACAGUCCACCTT against Dnajb12", "z-score": "inactive: 0.472"}
{"sequence": "GGUCAGAAAGACAAUCGCCTT against Nptx1", "z-score": "inactive: -0.182"}
{"sequence": "GAGCCAAAUUAGCAGCUUGTT against Rln3", "z-score": "inactive: -0.873"}
{"sequence": "GGAGAUAGGAGCGAUUGCUTT against Dpys", "z-score": "inactive: -1.07"}
{"sequence": "GGCAAUCUGGAACAACAUATT against Ano6", "z-score": "inactive: -1.59"}
{"sequence": "CGAGAAAGCAUAUAUAAUGTT against Mapk1ip1l", "z-score": "inactive: 1.12"}
{"sequence": "GGAUGGCUCUAUUUUUUUATT against Mab21l3", "z-score": "inactive: 0.114"}
{"sequence": "CCGUCAUCUGGAGAGAAACTT against Dtx3l", "z-score": "inactive: 0.0937"}
{"sequence": "GGCAGAAAUCCAUCAGAGATT against Rtkn2", "z-score": "inactive: -0.349"}
{"sequence": "GCUAUUUCACCGUCAGAAUTT against Primpol", "z-score": "inactive: 0.355"}
{"sequence": "GGUAGACUCUGACUUUGACTT against Vps72", "z-score": "inactive: -0.676"}
{"sequence": "GGACACUCAAAAACAACUGTT against Serpina3b", "z-score": "inactive: -0.509"}
{"sequence": "GGAUUCUGCAUGUUUGUACTT against Cds2", "z-score": "inactive: -0.403"}
{"sequence": "GGUACAUCUUAGAGGCCAATT against Epo", "z-score": "active: 2.66"}
{"sequence": "CGGAAGUCAAUUUUGAAAATT against Il31ra", "z-score": "inactive: -0.466"}
{"sequence": "ACCUCAAGACAGUGCAAAUTT against H2bc4", "z-score": "inactive: -1.41"}
{"sequence": "GGCCUGGACAUCUCUUCUCTT against Taf7", "z-score": "inactive: -1.98"}
{"sequence": "GAGACUCUAUUUGAGGAUUTT against Gm5414", "z-score": "inactive: -0.295"}
{"sequence": "GGUUCCUAGUAUUAUGUACTT against Fam136a", "z-score": "inactive: 1.42"}
{"sequence": "GCGAGAUCACUUUCCAAUCTT against Ddr2", "z-score": "inactive: -0.825"}
{"sequence": "GCUCUUUGACCUUGGCAAATT against Mdp1", "z-score": "inactive: 1.38"}
{"sequence": "GGAGAAAUUCCCUUGCCACTT against Kbtbd12", "z-score": "inactive: -0.0157"}
{"sequence": "CCUGCUACCUUAACUCUAATT against Tmem45a", "z-score": "inactive: 1.19"}
{"sequence": "CCCGUACAUUGAGUGCAAUTT against 6330403K07Rik", "z-score": "inactive: 0.414"}
{"sequence": "CGUAUACAAAUGUCCGGUATT against Itga11", "z-score": "inactive: 0.485"}
{"sequence": "GCCUACUUGUGUAUAAAGATT against Arhgap39", "z-score": "inactive: -0.0847"}
{"sequence": "GGAUGAAGAGCAUAACAGUTT against Sft2d2", "z-score": "inactive: -0.95"}
{"sequence": "GGUGCAAGUUUUGGUGGGATT against Etfbkmt", "z-score": "inactive: 0.35"}
{"sequence": "GGUAUUUUUACAUUCCCUUTT against Slc39a11", "z-score": "inactive: 0.175"}
{"sequence": "GGUAGAACUUAUUGUGGACTT against Ly6f", "z-score": "inactive: -0.692"}
{"sequence": "GGAACUGUCAUGACAUUUCTT against Ddt", "z-score": "inactive: -1.62"}
{"sequence": "CCCUGGGAGUUGAAUUGUUTT against Aqp6", "z-score": "inactive: -0.618"}
{"sequence": "GCUGGCCAAAUUCUGUGGUTT against Psph", "z-score": "inactive: 0.282"}
{"sequence": "GGCAACAGCAAUGACAUCCTT against Dbnl", "z-score": "inactive: -0.278"}
{"sequence": "GCAUCUCAAGGAUCUUCGGTT against Syngr4", "z-score": "inactive: -0.0821"}
{"sequence": "GGUGAAUGCAAGAUCACCUTT against Myl1", "z-score": "inactive: 0.343"}
{"sequence": "GCCUUGUGUGCUGUCCUCUTT against Ly6g5c", "z-score": "inactive: -1.67"}
{"sequence": "GGAAAAAGAAAGAAGGUUCTT against 4930483J18Rik", "z-score": "inactive: -0.695"}
{"sequence": "GGGACUAUUUCAACAAAGUTT against Spata31d1a", "z-score": "inactive: -0.429"}
{"sequence": "GCGGUUAUCUGCAUAUAGATT against Ahctf1", "z-score": "active: -2.47"}
{"sequence": "GGAGAGGAAAAUUGUAUUUTT against Alox12", "z-score": "inactive: -0.037"}
{"sequence": "GGAGUGGUAUAAGUCGAAATT against Prph", "z-score": "inactive: 1.09"}
{"sequence": "GGAACAUUUUGGAAAUGACTT against Fbxo25", "z-score": "inactive: -0.625"}
{"sequence": "GGUCUUGAAACUCUGAAAGTT against Sult1a1", "z-score": "inactive: -0.0379"}
{"sequence": "GGGCUAUCGGUUGACAAAUTT against Riok2", "z-score": "inactive: 1.67"}
{"sequence": "GGAUCGUGAGCUUCUAUUATT against Gask1a", "z-score": "inactive: 0.434"}
{"sequence": "GGUUCUCCAUUCUGUUUACTT against Slc35d1", "z-score": "inactive: -1.19"}
{"sequence": "GCAGAGGACAGGCUUACUUTT against Vwa5b2", "z-score": "inactive: -1.3"}
{"sequence": "GGCUUGUCCUGGCAUGAUGTT against Ptprn", "z-score": "inactive: -1.73"}
{"sequence": "GGAGAAAAUGGACAGUCUATT against Twist1", "z-score": "inactive: -1.93"}
{"sequence": "GGAUCUUGUUGGUUAUCGATT against Syn3", "z-score": "inactive: 0.601"}
{"sequence": "CGGCUUAAAUUGACAUUUCTT against Glul", "z-score": "inactive: 0.199"}
{"sequence": "CCCGUGGUAAUAGAAAACGTT against Sepsecs", "z-score": "inactive: 0.85"}
{"sequence": "GGAAAUCCUGAAGUUUCCUTT against Grk5", "z-score": "active: 4.41"}
{"sequence": "GGAGGAGAUCAAAAAAAGATT against Cfl2", "z-score": "inactive: -0.409"}
{"sequence": "CCAUACGAGUGACCAGUUGTT against Ctbp1", "z-score": "inactive: -0.764"}
{"sequence": "CCAGACGAGGAGAACAUCATT against Samd4b", "z-score": "inactive: -0.111"}
{"sequence": "GGGAGAGCGUAAGAUCUUUTT against Tln1", "z-score": "inactive: 0.839"}
{"sequence": "GGAAGCGUAAAUAAGUGUCTT against Emp2", "z-score": "inactive: 0.772"}
{"sequence": "GGCUUGGUUUUAAAUGAUGTT against Il17rd", "z-score": "inactive: -0.417"}
{"sequence": "CCCAGCUAUGCGAUCUUAATT against Zfp946", "z-score": "inactive: 0.017"}
{"sequence": "CCUUCAGACCUCCUUAUUATT against Hgd", "z-score": "inactive: 0.965"}
{"sequence": "GGGAUUACCACCCAUCCUATT against Atp5b", "z-score": "inactive: -0.0321"}
{"sequence": "CCAAUACGAACAACUUGCATT against Krt10", "z-score": "inactive: -0.694"}
{"sequence": "GGGAAGUGACAUAUUCUCGTT against Brf2", "z-score": "inactive: -0.277"}
{"sequence": "CCCAUUUCCGGAGCUCACUTT against Grb10", "z-score": "inactive: 0.4"}
{"sequence": "GCAGAUAUGACGAUUAAAUTT against Pafah1b1", "z-score": "inactive: 0.115"}
{"sequence": "CCUAGAGGAUUCAGAUCAATT against Pnmal1", "z-score": "active: 2.24"}
{"sequence": "GCAUUCCUUGUCUGCUAUUTT against Fgd3", "z-score": "inactive: 0.961"}
{"sequence": "GAGAAGAAGCCUAACCUCATT against Ang", "z-score": "inactive: 0.607"}
